In article PMC10126157, “High concentrations of soluble endoglin can inhibit BMP9 signaling in non-endothelial cells” (Scientific Reports, 2023):
Results are given in words; binding and its absence hold for the method and conditions named. Some results given as binding are weak or reduced against the parent protein; the word gives no strength.

Amino acid sequences for entries named in this document (tags omitted). A change or cut given only in a name is not applied to a line headed by its entry. Residues count along the entry.
UniProt P37023, residues 22-118: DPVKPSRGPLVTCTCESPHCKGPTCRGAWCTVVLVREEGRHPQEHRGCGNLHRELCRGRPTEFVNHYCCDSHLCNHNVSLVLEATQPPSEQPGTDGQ
UniProt P27037: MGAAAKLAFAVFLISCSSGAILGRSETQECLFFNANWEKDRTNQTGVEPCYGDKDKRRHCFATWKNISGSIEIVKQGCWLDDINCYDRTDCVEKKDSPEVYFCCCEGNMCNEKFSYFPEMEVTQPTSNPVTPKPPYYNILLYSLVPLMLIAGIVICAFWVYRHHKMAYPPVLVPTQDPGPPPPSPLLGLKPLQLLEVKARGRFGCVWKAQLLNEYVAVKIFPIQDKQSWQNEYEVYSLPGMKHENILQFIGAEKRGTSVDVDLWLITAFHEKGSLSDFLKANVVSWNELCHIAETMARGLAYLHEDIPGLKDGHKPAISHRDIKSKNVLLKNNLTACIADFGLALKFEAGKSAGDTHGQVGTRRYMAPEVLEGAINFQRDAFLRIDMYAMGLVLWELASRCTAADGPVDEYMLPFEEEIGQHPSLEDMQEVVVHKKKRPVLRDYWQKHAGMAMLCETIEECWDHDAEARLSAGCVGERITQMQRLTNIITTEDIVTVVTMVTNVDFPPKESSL

What was measured:
[1] = target: ALK1-Fc (recombinant chimeric type I receptor) (UniProt P37023); assay: ELISA; ALK1-Fc coated on MaxiSorp plates (1 ug/mL in PBS, overnight, 4 °C), blocked with 1% BSA; BMP9 added with sENG (control plate); bound BMP9 detected with BMP-9 DuoSet ELISA reagents; both purified
[2] = target: ActRIIA-Fc (recombinant chimeric type II receptor) (UniProt P27037); assay: ELISA; ActRIIA-Fc coated on MaxiSorp plates (1 ug/mL in PBS, overnight, 4 °C), blocked with 1% BSA; BMP9 (15 ng/mL) added with increasing concentrations of sENG(M), sENG(D) or sENG-Fc; bound BMP9 detected with BMP-9 DuoSet ELISA reagents; both purified

binding [1]: binds | binding [2]: binds
B1: Bone morphogenetic protein 9 (BMP9) (ligand, human, UniProt Q9UK05 320-429, looked up)
chain: SAGAGSHCQKTSLRVNFEDIGWDSWIIAPKEYEAYECKGGCFFPLADDVTPTKHAIVQTLVHLKFPTKVGKACCVPTKLSPISVLYKDDMGVPTLKYHYEGMSVAECGCR
notes: BMP9 (GDF2), recombinant human protein from R&D Systems; source: bought: R&D Systems (Cat.# 3209-BP), recombinant human protein
